# Screening data, single-dose tests

The chains behind the UniProt entries cited, without tags or fusion partners. Residues count along the entry.
UniProt P9WNZ1, whole entry: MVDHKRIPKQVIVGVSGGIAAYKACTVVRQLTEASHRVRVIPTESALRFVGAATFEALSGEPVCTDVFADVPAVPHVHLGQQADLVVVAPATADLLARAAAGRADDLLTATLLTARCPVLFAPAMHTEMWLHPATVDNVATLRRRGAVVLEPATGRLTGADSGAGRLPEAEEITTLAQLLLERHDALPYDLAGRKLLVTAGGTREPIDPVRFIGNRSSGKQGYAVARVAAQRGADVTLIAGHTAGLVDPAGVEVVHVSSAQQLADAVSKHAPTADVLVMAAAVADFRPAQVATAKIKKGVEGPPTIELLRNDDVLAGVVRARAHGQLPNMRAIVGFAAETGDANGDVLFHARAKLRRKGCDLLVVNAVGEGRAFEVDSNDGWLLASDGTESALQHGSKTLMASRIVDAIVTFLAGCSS
UniProt Q8IDJ8, 1-583: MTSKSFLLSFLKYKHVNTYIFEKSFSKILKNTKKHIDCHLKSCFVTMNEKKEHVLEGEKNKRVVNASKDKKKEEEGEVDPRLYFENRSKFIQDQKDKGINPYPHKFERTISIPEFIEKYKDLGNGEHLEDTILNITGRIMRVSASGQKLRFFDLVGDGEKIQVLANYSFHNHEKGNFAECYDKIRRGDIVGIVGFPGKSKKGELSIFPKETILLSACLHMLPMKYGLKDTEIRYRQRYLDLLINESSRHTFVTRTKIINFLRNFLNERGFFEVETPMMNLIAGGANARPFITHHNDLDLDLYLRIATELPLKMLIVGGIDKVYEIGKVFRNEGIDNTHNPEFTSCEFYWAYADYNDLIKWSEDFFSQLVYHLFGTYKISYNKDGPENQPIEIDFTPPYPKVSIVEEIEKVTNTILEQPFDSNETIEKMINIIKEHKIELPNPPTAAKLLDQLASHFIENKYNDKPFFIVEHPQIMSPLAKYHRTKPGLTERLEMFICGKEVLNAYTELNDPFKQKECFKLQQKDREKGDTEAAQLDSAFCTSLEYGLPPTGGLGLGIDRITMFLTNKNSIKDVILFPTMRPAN
UniProt P9WFT3, whole entry: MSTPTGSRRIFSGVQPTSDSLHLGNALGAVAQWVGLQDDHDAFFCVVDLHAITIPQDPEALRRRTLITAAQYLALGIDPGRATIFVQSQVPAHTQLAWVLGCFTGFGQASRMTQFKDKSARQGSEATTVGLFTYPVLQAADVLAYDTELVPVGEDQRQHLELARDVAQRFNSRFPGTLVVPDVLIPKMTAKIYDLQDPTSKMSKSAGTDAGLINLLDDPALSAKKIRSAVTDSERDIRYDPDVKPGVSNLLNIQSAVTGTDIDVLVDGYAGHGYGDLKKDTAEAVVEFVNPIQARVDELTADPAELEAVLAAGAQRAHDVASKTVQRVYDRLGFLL
UniProt I6X8D2, whole entry: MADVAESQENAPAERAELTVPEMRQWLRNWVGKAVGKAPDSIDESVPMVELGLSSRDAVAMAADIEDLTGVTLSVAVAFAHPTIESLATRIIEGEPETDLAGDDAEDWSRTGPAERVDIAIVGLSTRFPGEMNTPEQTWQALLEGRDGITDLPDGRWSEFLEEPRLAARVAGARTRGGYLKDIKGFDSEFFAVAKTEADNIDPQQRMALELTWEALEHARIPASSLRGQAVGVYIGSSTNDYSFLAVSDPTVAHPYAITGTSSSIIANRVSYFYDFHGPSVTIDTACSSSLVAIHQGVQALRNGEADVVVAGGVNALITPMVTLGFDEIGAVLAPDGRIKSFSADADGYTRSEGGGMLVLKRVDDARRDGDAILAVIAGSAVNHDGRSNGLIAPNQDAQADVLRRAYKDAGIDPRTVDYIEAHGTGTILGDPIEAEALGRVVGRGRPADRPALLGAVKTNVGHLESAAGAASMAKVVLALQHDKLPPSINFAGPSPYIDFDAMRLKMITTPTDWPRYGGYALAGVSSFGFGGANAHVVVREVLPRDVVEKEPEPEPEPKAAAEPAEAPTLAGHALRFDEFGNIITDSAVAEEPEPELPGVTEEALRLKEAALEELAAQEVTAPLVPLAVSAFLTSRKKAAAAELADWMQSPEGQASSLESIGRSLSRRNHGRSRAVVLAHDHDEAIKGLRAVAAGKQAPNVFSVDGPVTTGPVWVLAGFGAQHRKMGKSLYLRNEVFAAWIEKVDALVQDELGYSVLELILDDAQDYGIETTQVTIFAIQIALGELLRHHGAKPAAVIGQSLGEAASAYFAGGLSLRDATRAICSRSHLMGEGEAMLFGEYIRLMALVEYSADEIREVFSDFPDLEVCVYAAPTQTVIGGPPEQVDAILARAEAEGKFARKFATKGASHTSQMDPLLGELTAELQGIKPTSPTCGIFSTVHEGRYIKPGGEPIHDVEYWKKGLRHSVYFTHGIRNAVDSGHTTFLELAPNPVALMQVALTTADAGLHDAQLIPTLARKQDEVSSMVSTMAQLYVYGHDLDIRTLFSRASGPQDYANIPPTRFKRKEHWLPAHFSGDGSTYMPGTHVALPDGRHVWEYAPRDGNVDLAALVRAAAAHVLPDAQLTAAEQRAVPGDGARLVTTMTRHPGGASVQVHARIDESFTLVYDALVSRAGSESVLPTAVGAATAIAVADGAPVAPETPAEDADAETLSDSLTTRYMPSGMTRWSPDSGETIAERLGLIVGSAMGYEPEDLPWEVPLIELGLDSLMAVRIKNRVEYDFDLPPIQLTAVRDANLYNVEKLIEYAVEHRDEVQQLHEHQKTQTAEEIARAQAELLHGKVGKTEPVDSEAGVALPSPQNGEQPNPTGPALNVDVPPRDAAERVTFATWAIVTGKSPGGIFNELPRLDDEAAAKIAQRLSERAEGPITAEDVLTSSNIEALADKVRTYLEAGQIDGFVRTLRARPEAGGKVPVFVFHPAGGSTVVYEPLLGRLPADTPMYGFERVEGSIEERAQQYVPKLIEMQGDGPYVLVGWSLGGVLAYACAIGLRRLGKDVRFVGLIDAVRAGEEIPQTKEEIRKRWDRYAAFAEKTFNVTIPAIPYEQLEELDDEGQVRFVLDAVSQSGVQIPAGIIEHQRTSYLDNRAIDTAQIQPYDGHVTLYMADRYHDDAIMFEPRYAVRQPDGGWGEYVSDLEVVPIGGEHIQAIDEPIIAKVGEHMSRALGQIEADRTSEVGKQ

Measurements from “University of Dundee, Small-Polar-MMV Screening Library” (2021), ChEMBL document CHEMBL3988442.

CoaBC: 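Coenzyme A biosynthesis protein CoaBC, Mycobacterium tuberculosis (UniProt P9WNZ1). Enzyme assay of CoaBC with a phosphate dye (Biomol Green) read at 650 nm. Concentration: 30 µM. Direction is inferred from only a few compounds that gave an IC50; most scored high, so higher reads as stronger inhibition. Most strong results did not repeat in a second test. About 67,000 compounds were tested under these conditions; 0.06% (about 40) showed 50% or more at least once.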
PfKRS1: 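Enzyme assay of the cytosolic lysyl-tRNA synthetase in 384-well plates, read by luminescence. Target: Lysine-tRNA ligase, Plasmodium falciparum 3D7 (UniProt Q8IDJ8). Compounds at 30 µM. Direction is inferred from only a few compounds that gave an IC50; most scored high, so higher reads as stronger inhibition. About 69,000 compounds were tested under these conditions; 0.071% (about 49) showed 50% or more at least once.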
Toxoplasma: 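Assay of Toxoplasma gondii numbers, read through their beta-galactosidase reporter with a colour substrate. Concentration: 10 µM. The record gives no direction; the compounds picked for IC50 retests had high values, so higher reads as fewer parasites. Size under these conditions: about 67,000 compounds, about 260 of them at 50% or above in at least one test.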
MtTrpRS: 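Tryptophan-tRNA ligase, Mycobacterium tuberculosis (UniProt P9WFT3). Enzyme assay of tryptophanyl-tRNA synthetase; the read-out is not stated. Tested at 10 µM. Direction is not recorded; retested compounds ran higher, which suggests that high means inhibition. Of about 65,000 compounds tested this way, about 64 (0.098%) reached 50% or more in at least one test.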
Pks13 thioesterase: 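Enzyme assay of the thioesterase domain of polyketide synthase 13; the read-out is not stated. Target: Polyketide synthase Pks13, Mycobacterium tuberculosis (UniProt I6X8D2). Compounds at 30 µM. Higher reads as stronger inhibition (inferred from which compounds were picked for retests). Of about 67,000 compounds tested this way, about 300 (0.46%) reached 50% or more in at least one test.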

Results are given as percent effect. The controls that fix the scale are not given in the record; negative values are as filed. The compounds are a random part of those screened.

- O=C(O)c1nnn(-c2ccccc2)c1-c1ccncc1 : CoaBC: 3.038%; PfKRS1: 1.715%; Toxoplasma: 7.468%; MtTrpRS: 0.7498%; Pks13 thioesterase: 4.815%
- O=c1[nH]nc2nc(N3CCOCC3)ccn12 : CoaBC: 0.1255%; PfKRS1: 2.759%; Toxoplasma: -29.06%; MtTrpRS: -1.025%; Pks13 thioesterase: -3.52%
- COCCN1CC2(CCOCC2)c2cc(NC(=O)C3CC=CC3)ccc21.O=C(O)C(F)(F)F : Toxoplasma: -48.42%
- CCNc1cc2c(nn1)CCN(C(=O)c1ccc3cc[nH]c3c1)C2 : CoaBC: -6.383%; PfKRS1: 2.607%; Toxoplasma: -0.2823%; MtTrpRS: 1.101%
- COC1CCN(C(=O)c2c(Cl)c3ccccc3n2C)CC1 : CoaBC: -7.143%; PfKRS1: 1.913%; Toxoplasma: -1.762%; MtTrpRS: 2.664%; Pks13 thioesterase: -16.67%
- [H][C@@]12CN(Cc3cccnc3)C[C@]1([H])C(=O)N(CC)C21CCN(C(C)=O)CC1 : Toxoplasma: 10.06%
- CN(C)c1cc2c(nn1)CCN(C(=O)C1Cc3ccccc3S1)C2 (centres unmarked) : CoaBC: -2.314%; PfKRS1: 17.55%; MtTrpRS: 3.226%; Pks13 thioesterase: -71.77%
- CC(C)OCCCN(Cc1ccncc1)Cc1cccc(F)c1 : CoaBC: 11.19%; PfKRS1: 2.404%; MtTrpRS: -2.029%; Pks13 thioesterase: -2.644%
- O=C(NCCc1cccc(F)c1)NCC(O)c1cccc(F)c1 (centres unmarked) : CoaBC: -1.305%; PfKRS1: 7.008%; Toxoplasma: 7.295%; MtTrpRS: 1.174%; Pks13 thioesterase: -10.87%
- COc1cccc(CNC(=O)N2CCN(Cc3cc(C)on3)CC2)c1 : CoaBC: 3.856%; PfKRS1: 2.477%; MtTrpRS: -1.18%; Pks13 thioesterase: -19.18%
- [H][C@]12CC[C@]([H])(CN(C(=O)c3ccc(C)s3)C1)N(CC1CCC1)C2 : Toxoplasma: 10.62%
- CCCc1nc(C)cc(N2CCNC(C(=O)Nc3ccc(C)nc3)C2)n1 (centres unmarked) : CoaBC: 5.211%; PfKRS1: 1.895%; Toxoplasma: -10.68%; MtTrpRS: 12.75%; Pks13 thioesterase: -0.6523%
- CN(C(=O)CSc1ncc[nH]1)c1ccccc1 : CoaBC: -1.347%; PfKRS1: -1.244%; Toxoplasma: 37.21%; MtTrpRS: -0.9032%; Pks13 thioesterase: -13.6%
- O=C(Cn1cccnc1=O)NCC1Cc2ccccc2O1 (centres unmarked) : CoaBC: 8.367%; PfKRS1: 3.899%; Toxoplasma: -0.5299%; MtTrpRS: -2.77%; Pks13 thioesterase: -9.583%
- CC(C)(C)NS(=O)(=O)c1ccc(NC(=O)C2CC2)cc1 : CoaBC: -2.419%; PfKRS1: -4.26%; Toxoplasma: 2.844%; MtTrpRS: 6.341%; Pks13 thioesterase: 6.452%
- Cc1nnc(NC(=O)N2CCCCC2CCO)s1 (centres unmarked) : CoaBC: 12.4%; PfKRS1: 3.682%; Toxoplasma: -2.268%; MtTrpRS: -5.098%; Pks13 thioesterase: -13.07%
- CS(=O)(=O)NC(=O)c1ccn(-c2ccc(Cl)c(Cl)c2)n1 : CoaBC: 1.887%; PfKRS1: 6.625%; Toxoplasma: -22.38%; MtTrpRS: -0.1361%; Pks13 thioesterase: -5.006%

2 of the entries, repeated:

{"structure": "Cc1nnc(NC(=O)N2CCCCC2CCO)s1", "stereo": "centres unmarked", "CoaBC": 12.4, "PfKRS1": 3.682, "Toxoplasma": -2.268, "MtTrpRS": -5.098, "Pks13 thioesterase": -13.07}
{"structure": "O=C(NCCc1cccc(F)c1)NCC(O)c1cccc(F)c1", "stereo": "centres unmarked", "CoaBC": -1.305, "PfKRS1": 7.008, "Toxoplasma": 7.295, "MtTrpRS": 1.174, "Pks13 thioesterase": -10.87}